Measurements from patent US8414938B2, “Schisandrae fructus extracts for inhibition or prevention of H1N1 influenza virus infection and its application thereof” (National Defense Medical Center, priority 2011, dated 2013).
Some of these results come from one statement about several compounds together.

These molecules were tested on influenza virus H1N1. Conditions: 50 μg/ml supplemented with the virus at the same time.
Format: cell-based
With `COc1cc([C@@H]2c3cc(OC)c(O)cc3C(=O)[C@@H](C)[C@H]2C)ccc1O` [Wulignan A1] the cell survival ratio was greater than 75%. `COc1cc([C@@H]2c3cc(OC)c(O)cc3C(=O)[C@H](C)[C@H]2C)ccc1O` [Epiwulignan A1] gave a cell survival ratio greater than 75%. In the case of `C/C=C(\C)C(=O)O[C@H]1c2cc(OC)c(OC)c(OC)c2-c2c(cc3c(c2OC)OCO3)C[C@H](C)[C@@]1(C)O` (atropisomer, axis not shown) [Tigloylgomisin P], the cell survival ratio is reported as greater than 75%. Work on `COc1cc2c(c(OC)c1OC)-c1c(cc3c(c1OC)OCO3)C[C@H](C)[C@@](C)(O)[C@H]2OC(=O)c1ccccc1` (atropisomer, axis not shown) [Benzoylgomisin P] yielded a cell survival ratio greater than 75%. For `COc1cc2c(cc1O)C(=O)[C@@H](C)[C@@H](C)[C@@H]2c1ccc(OC)c(OC)c1` [Schisandrone], the cell survival ratio was greater than 75%.
